Test results from PMC7956376.

Amino acid sequences for entries named in this document (tags omitted). A change or cut given only in a name is not applied to a line headed by its entry.
UniProt Q93X17: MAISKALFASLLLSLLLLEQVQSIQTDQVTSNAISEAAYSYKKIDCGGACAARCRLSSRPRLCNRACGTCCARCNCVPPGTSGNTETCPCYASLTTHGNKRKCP

Target: Snakin-2 (StSN2), as present in transgenic potato lines (potato (Solanum tuberosum, cultivar Chuanyu 10)) (UniProt Q93X17)
Experiment: affinity purification with mass spectrometry; CoIP-MS: rabbit anti-StSN2 antibody (raised against the peptide …) used to co-immunoprecipitate SN2-interacting proteins from RNAi line 7 and OE line 27; in-gel tryptic digestion, LC-MS/MS

| binding | Binder |
| --- | --- |
| binds | Class III peroxidase Prx9, in potato extract (enzyme, UniProt M1A251 1-334) MALGATHLSLAFCLMALIVLVKADFDGKKEPINNILEQNSEMLTQDFCIFAAVGSVVAEAIARERRMGASLIRLFFHDCFVDGCDAGILLDDIPGRFQGEKTSPPNNNSVRGYQVIDQAKQRIKTMCPGAAVSCADILALAARDSVAMLGGIPYPVSLGRKDARTANFTGALIQLPAPFDDLNVQLKKFSDKGMSAREMVALVGSHTVGFARCVTLCDDRNINPAMKSTLKCGCPVSNNNTNLVPLDLMTPDFFDKFYYEDLIRNQGLLFSDQVLMGSTATANVVRTYNSNPALFLREFNDAMIKMGNLPPSRGVQLEIRNVCSKVNGNSIADM |
| binds | Class III peroxidase Prx10, in potato extract (enzyme, UniProt M1CCJ9 1-359) MASTTLYTLASSLVLILSIFVSIHFQVTKAQGTQPIVKGLSWTFYDSICPNAESIIRRRLQNVFRQDIGQAAGLLRLHFHDCFVQGCDGSVLLDGSTSGPSEKDAPPNLTLRQQAFRIIEDLRRRVHRDCGRVVSCADITAIAARDSVFFSGGPDYDLPLGRRDGLTFATLNETLANLPPPSFNTSLILASLATKNFTPTDVVALSGGHTIGISHCTSFTERLYPNQDSSMDKTFANNLKITCPTTNSTNTTVLDIRSPNKFDNKYYVDLMNRQGLFTSDQDLYTDRRTRGIVTSFAINESLFFQEFVNSMIKMGQLNVLTGTQGQIRANCSVRNSNNYNLILPSSLGDQEKQGTWSEI |

These are yes or no findings as the source states them, for the method shown. In cells and extracts the contact can be indirect. A yes stands for co-enrichment or nearness to the bait. Other partners may have been found.
